No constants are given. Whether binding was seen depends on the method and setting. Some binding calls cover weakened binding; strength is not graded here.

Protein sequences, listed by entry. Tags and fused reporters are not part of them. Lines headed by an entry give the natural chain unless they say otherwise; changes in a name come on top.
UniProt P08670: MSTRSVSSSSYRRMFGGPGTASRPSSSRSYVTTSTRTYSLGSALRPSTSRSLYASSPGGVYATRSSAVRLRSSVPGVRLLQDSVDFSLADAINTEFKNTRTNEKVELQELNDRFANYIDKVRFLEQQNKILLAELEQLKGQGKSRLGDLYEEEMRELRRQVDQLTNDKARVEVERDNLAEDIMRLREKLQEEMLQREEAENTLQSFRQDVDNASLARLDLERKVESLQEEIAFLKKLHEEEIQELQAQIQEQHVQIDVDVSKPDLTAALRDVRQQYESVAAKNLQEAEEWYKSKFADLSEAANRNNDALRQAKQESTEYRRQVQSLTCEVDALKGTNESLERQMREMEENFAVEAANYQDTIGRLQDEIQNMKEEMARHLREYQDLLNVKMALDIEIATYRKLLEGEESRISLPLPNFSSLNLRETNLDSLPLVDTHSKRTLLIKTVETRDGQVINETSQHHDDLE

The values below come from publication PMC6755999.

Assay [1] deals with His-tagged vimentin (UniProt P08670). Put plainly: cryo-electron microscopy of filaments polymerised in vitro; soluble purified His-vimentin polymerised at 30 °C for 30 min, adsorbed on holey carbon grid, uranyl acetate, plunge-frozen, JEOL1400 at 120 kV; both purified.
Assay [2] shares this target. Nature of the assay: co-sedimentation; self-assembly into filaments: purified His-vimentin 0.3 mg/mL in dialysis buffer, 150 mM NaCl added, 30 °C for 30 min, centrifuged at 100,000 x g for 20 min; supernatant and pellet on SDS-PAGE, Coomassie blue; both purified.
For assay [3] the target is unchanged. Put plainly: immunofluorescence microscopy of filaments polymerised in vitro; purified His-vimentin polymerised with or without 150 mM NaCl at 30 °C for 30 min, stained with anti-vimentin (V9) and Alexa Fluor 488 secondary antibody, Zeiss ApoTome2; both purified.
Assay [4] addresses His-tagged vimentin Y117D mutant (UniProt P08670). Described as above.
For assay [5], the target named is His-tagged vimentin Y117F mutant (UniProt P08670). Nature of the assay: cryo-electron microscopy of filaments polymerised in vitro; soluble purified His-vimentin polymerised at 30 °C for 30 min, adsorbed on holey carbon grid, uranyl acetate, plunge-frozen, JEOL1400 at 120 kV; both purified.
Assay [6] shares this target. Put plainly: co-sedimentation; self-assembly into filaments: purified His-vimentin 0.3 mg/mL in dialysis buffer, 150 mM NaCl added, 30 °C for 30 min, centrifuged at 100,000 x g for 20 min; supernatant and pellet on SDS-PAGE, Coomassie blue; both purified.
The target is the same in assay [7]. Put plainly: immunofluorescence microscopy of filaments polymerised in vitro; purified His-vimentin polymerised with or without 150 mM NaCl at 30 °C for 30 min, stained with anti-vimentin (V9) and Alexa Fluor 488 secondary antibody, Zeiss ApoTome2; both purified.

Consider “His-tagged vimentin (from UniProt P08670 1-466)”, for which the binding result with His-tagged vimentin [1], with His-tagged vimentin [2] and with His-tagged vimentin [3] was “binds” in each case.
With “His-tagged vimentin Y117D mutant (from UniProt P08670 1-466)”, in assay [4], the binding entry was “binds”.
With “His-tagged vimentin Y117F mutant (from UniProt P08670 1-466)”, the binding entry in assay [5], in assay [6] and in assay [7] was “binds” throughout.
